PubChem BioAssay AID504808 – Drosophila RNAi Screening Center, 2011

Screen: 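Genes whose loss lifts activity of an E2F-responsive reporter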 (primary screen)
Cell system: Drosophila S2 cells
Knock-down reagent: long dsRNA against Drosophila genes
Measurement: 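Dual luciferase plate measurements; E2F-specific signal taken as firefly over Renilla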
Direction: E2F firefly: higher = more E2F reporter activity; Renilla normaliser: higher = more normaliser reporter signal
Hit rule: 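Called active if the normalised E2F reporter went up by over 50%; the cutoff is arbitrary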
The deposit covers about 21,000 reagents; this is an unselected part of those with a known target gene and a result. Over the whole deposit, 18 (0.084%) are marked active. 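Raw counts without plate normalisation, one of two replicates; the ratio scores behind the calls were not deposited.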 A number with no mark means an inactive call. Reagents against one gene are numbered here. The record does not give: the amount of reagent, the time to read-out.

predicted target | reagent no. | E2F firefly, rep 1 | Renilla normaliser, rep 1
prom | 1 | 1.12e5 | 4560
Obsc | 1 | 48379 | 3389
Obsc | 2 | 79996 | 3672
Obsc | 3 | 98951 | 4466
Obsc | 4 | 1.05e5 | 4601
trpl | 1 | 1.49e5 | 5352
trpl | 2 | 1.46e5 | 4734
TkR99D | 1 | 1.28e5 | 6016
FIG4 | 1 | 1.02e5 | 3946
CG5273 | 1 | 60976 | 3482
frm | 1 | 79478 | 4216
CG17477 | 1 | 1.15e5 | 5900
nero | 1 | 1560 | 808
cathD | 1 | 1.46e5 | 4940
net | 1 | 1.44e5 | 4864
Sik2 | 1 | 1.32e5 | 7140
Golgin104 | 1 | 74062 | 3157
Ddc | 1 | 92165 | 4170
CG34425 | 1 | 1.38e5 | 7886
kraken | 1 | 1.63e5 | 5943
PGRP-SD | 1 | 1.03e5 | 4157
heca | 1 | 99271 | 5410
CG14212 | 1 | 1.27e5 | 6759
msn | 1 | 1.21e5 | 3725
msn | 2 | 90175 | 4481
Orct2 | 1 | 72675 | 3593
CG42237 | 1 | 1.32e5 | 6254
Polr2C | 1 | 60009 | 3640
Tengl4 | 1 | 1.37e5 | 6497
BaraC | 1 | 1.27e5 | 5188
Spn55B | 1 | 1.50e5 | 4922
CG9485 | 1 | 78852 | 3290
CG14926 | 1 | 1.57e5 | 5742
psd | 1 | 1.44e5 | 4793
kis | 1 | 1.63e5 | 5484
kis | 2 | 1.50e5 | 4847
kis | 3 | 86006 | 3610
Galphas | 1 | 88628 | 3552
CG13231 | 1 | 93186 | 3759
Amnionless | 1 | 1.58e5 | 5461
shot | 1 | 1.12e5 | 5833
shot | 2 | 1.34e5 | 5321
shot | 3 | 2765 | 219
CG2577 | 1 | 1.07e5 | 5154
ng4 | 1 | 1.31e5 | 6005
CG42755 (retired record) | 1 | 1.29e5 | 5030
CG42755 (retired record) | 2 | 1.33e5 | 5104
Dhc36C | 1 | 93231 | 4371
CG10005 | 1 | 1.22e5 | 5545
CG8777 | 1 | 2877 | 198
Arpc3B | 1 | 1.28e5 | 7578
CG10139 | 1 | 3055 | 192
CG15484 | 1 | 1.03e5 | 4438
Acp95EF | 1 | 1.05e5 | 6614
CG12540 | 1 | 1.40e5 | 6189
CG14244 | 1 | 1.22e5 | 6729
CG4229 | 1 | 76836 | 3061
CG14506 | 1 | 1.27e5 | 6593
wls | 1 | 87351 | 3694
l(2)k01209 | 1 | 1.44e5 | 5341
scro | 1 | 84046 | 2349
scro | 2 | 87551 | 4544
CG7276 | 1 | 1.60e5 | 8164
Jhbp5 | 1 | 1.20e5 | 6010
COX5BL | 1 | 1.58e5 | 5693
CG13123 | 1 | 1.39e5 | 5057
Spase22-23 | 1 | 1.16e5 | 6603
CG9406 | 1 | 93213 | 3836
Hsdl2 | 1 | 1621 | 852
Cyp313b1 | 1 | 1.30e5 | 6767
Grp170 | 1 | 2132 | 1012
Wwox | 1 | 85888 | 4016
Ser | 1 | 1.20e5 | 7426
CG8891 | 1 | 1.56e5 | 5236
Balat | 1 | 3072 | 171
CG30487 | 1 | 1.30e5 | 5331
se | 1 | 97942 | 4093
wtrw | 1 | 77180 | 3825
wtrw | 2 | 1.27e5 | 6721
CG13022 | 1 | 1.70e5 | 7384
CG32547 | 1 | 75913 | 2865
CG32547 | 2 | 83996 | 3113
CG32547 | 3 | 1.58e5 | 6205
CG32547 | 4 | 1.61e5 | 5699

Reformatted: 7 of the entries above
shot #1 — E2F firefly, rep 1 = 1.12e5; Renilla normaliser, rep 1 = 5833
shot #2 — E2F firefly, rep 1 = 1.34e5; Renilla normaliser, rep 1 = 5321
shot #3 — E2F firefly, rep 1 = 2765; Renilla normaliser, rep 1 = 219
CG2577 — E2F firefly, rep 1 = 1.07e5; Renilla normaliser, rep 1 = 5154
ng4 — E2F firefly, rep 1 = 1.31e5; Renilla normaliser, rep 1 = 6005
CG42755 (retired record) #1 — E2F firefly, rep 1 = 1.29e5; Renilla normaliser, rep 1 = 5030
CG42755 (retired record) #2 — E2F firefly, rep 1 = 1.33e5; Renilla normaliser, rep 1 = 5104
